Measured values: PubChem BioAssay AID504467 (National Center for Advancing Translational Sciences (NCATS), 2011)
The campaign covered roughly 330,000 compounds. About 7,700 (2.3%) were called active. The inconclusive results got no clear call from the source; some entries with a clear call stand among them for comparison. Calls follow the shape of the dose curve; as a rule, active = well fitted inhibition curve with a large enough effect; inconclusive = small, poorly fitted or top-dose-only effect, or effect the other way; inactive = flat fitted curve, though single readings scatter. Potencies beside an inconclusive call are fits to weak or partial responses and may not hold up.

test: qHTS screen for small molecules that inhibit ELG1-dependent DNA repair in human embryonic kidney (HEK293T) cells expressing luciferase-tagged ELG1; settings: HEK293T ELG1-luciferase reporter, luminescence, 16 h, DNA damage induced by 5-fluorouridine; series mostly up to 46.1 µM; also: nearly all actives have a fitted effect of over 55% in size
Method in brief: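 In this reporter screen, reduction of luminescence relative to DMSO vehicle indicated activity. Compounds and 5-fluorouridine were added together to 2,000 cells per well, incubated for 16 hr at 37 °C, then developed with ONE-Glo.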
Potency is read from the fitted curve at half-maximal effect.

Question: For `CCOC(=O)C1CCN(C(=O)Nc2c(-c3ccccc3)noc2C)CC1`, which Potency is on record?
Answer: The Potency was “inactive”.

Question: With `CC(C)CN1CCC(=O)N([C@H](CSc2ccc(Br)cc2)c2ccccc2)CC1` as the molecule, how does the Potency read?
Answer: Its Potency is inconclusive: 16.4 µM [activator, partial curve, poor fit].

Question: Which Potency does the source give for `CC(NC(=O)c1ccc2c(c1)OCO2)C(c1cccs1)N1CCN(c2ccccc2)CC1` (stereo unspecified) here?
Answer: The Potency was inconclusive: 25.9 µM [inhibitor, single point].

Question: For `NS(=O)(=O)c1ccc(CCNC(=O)CNCCc2ccc(C(F)(F)F)cc2)cc1`, which Potency is on record?
Answer: Its Potency is active: 20.6 µM.

Question: With `Clc1ccc(Oc2nc(Oc3ccc(Cl)cc3)nc(N3CCOCC3)n2)cc1` as the molecule, how does the Potency read?
Answer: Its Potency is “inactive”.

Question: For `NC(=O)C1CCN(C(=O)c2cc3ccccn3n2)CC1`, which Potency is on record?
Answer: The Potency was inconclusive: 5.17 µM [activator, partial curve, poor fit].

Question: Which Potency does the source give for `Cc1nn(-c2ccccc2)c(Cl)c1C(=O)NNC(=O)c1ccccc1O` here?
Answer: The Potency was inconclusive: 10.3 µM [activator, partial curve, poor fit].

Question: Which Potency does the source give for `Cc1cnc(NC(=O)CN2CCN(c3ccccn3)CC2)s1` here?
Answer: The Potency was inconclusive: 29.1 µM [inhibitor, single point].

Question: With `COc1ccc(Oc2coc3cc(O)ccc3c2=O)cc1` as the molecule, how does the Potency read?
Answer: The Potency was inconclusive: 35.5 µM [activator, single point].

Question: For `OCCCNc1ncnc2scc(-c3ccc(Cl)cc3)c12`, which Potency is on record?
Answer: The Potency was active: 4.61 µM.

Question: Which Potency does the source give for `Cc1ccc(-n2nc(C)c3c2OC(N)=C(C#N)C3c2ccoc2)cc1` (stereo unspecified) here?
Answer: The Potency was inconclusive: 16.4 µM [activator, single point].

Question: For `Cc1csc(=O)n1CCC(=O)NCc1ccc(F)cc1`, which Potency is on record?
Answer: The Potency was inconclusive: 16.4 µM [activator, single point].

Question: With `O=C(COc1ccc(Cl)cc1Cl)NNC(=S)NCc1ccco1` as the molecule, how does the Potency read?
Answer: The Potency was “inactive”.

Question: For `O=C(Nc1cccc(S(=O)(=O)N2CCOCC2)c1)c1ccc(N2CCOCC2)c([N+](=O)[O-])c1`, which Potency is on record?
Answer: Its Potency is inconclusive: 20.6 µM [inhibitor, single point].

Question: With `Cc1cc(NC(=O)Nc2cccc(C)c2C)no1` as the molecule, how does the Potency read?
Answer: The Potency was “inactive”.

Question: For `CC(C)C[C@H](NC(=O)OC(C)(C)C)c1nnc(SCc2cccc(F)c2)o1`, which Potency is on record?
Answer: The Potency was inconclusive: 18.4 µM [inhibitor, single point].

Question: With `CC(C)Cn1c(N)c(C(=O)COC(=O)COc2cccc(C(F)(F)F)c2)c(=O)n(C)c1=O` as the molecule, how does the Potency read?
Answer: The Potency was inconclusive: 3.66 µM [inhibitor, partial curve, poor fit].

Question: With `Cc1cccc(NC(=O)COc2ccccc2C)n1` as the molecule, how does the Potency read?
Answer: The Potency was inconclusive: 13 µM [activator, single point].

Question: For `Cc1cc(C)n(CC(=O)NC2C(=O)N3C(C(=O)O)=C(CSc4nnc(C)s4)CSC23)n1` (stereo unspecified), which Potency is on record?
Answer: Its Potency is “inactive”.

Question: With `COc1ccc2[nH]c3c(c2c1)CCN1C(=O)C(CC(=O)NCCC2=CCCCC2)C[C@H](C(=O)N2CCCCC2)[C@@]31CCc1ccccc1` (stereo partly specified) as the molecule, how does the Potency read?
Answer: Its Potency is “inactive”.

Question: With `Cc1ccc(NC(=O)CSc2nnc(NC(=O)c3ccc(S(=O)(=O)N4CCOCC4)cc3)s2)cc1` as the molecule, how does the Potency read?
Answer: Its Potency is inconclusive: 18.4 µM [activator, single point].

Question: For `COC(=O)CSc1nc2c(cnn2-c2ccc(Cl)cc2)c(=O)[nH]1`, which Potency is on record?
Answer: Its Potency is “inactive”.

Question: Which Potency does the source give for `COc1cc(OC)cc(C(=O)Nc2ccccc2-c2nnn(CC(N)=O)n2)c1` here?
Answer: Its Potency is inconclusive: 32.6 µM [inhibitor, partial curve, poor fit].

Question: For `COc1ccc(NS(=O)(=O)c2cc(NC(=O)COc3ccc(OC)cc3)ccc2N2CCOCC2)cc1`, which Potency is on record?
Answer: Its Potency is “inactive”.

Question: With `CCC(C(=O)NC1CCCC1)N(C(=O)Cn1nnc(-c2ccc(C)o2)n1)c1ccc(F)cc1` (stereo unspecified) as the molecule, how does the Potency read?
Answer: The Potency was “inactive”.

Question: Which Potency does the source give for `CS(=O)(=O)c1ccccc1C(=O)N(CCc1ccccc1)Cc1ccccc1` here?
Answer: The Potency was “inactive”.

Question: Which Potency does the source give for `CCOC(=O)c1cnc(NCc2ccccc2)nc1C` here?
Answer: Its Potency is inconclusive: 16.4 µM [activator, partial curve].

Question: With `COC(=O)[C@]1(Cc2ccccc2)N[C@H](CN(C)C(=O)Nc2ccc(OC)cc2)[C@@H]2C(=O)N(Cc3ccccc3)C(=O)[C@@H]21` as the molecule, how does the Potency read?
Answer: The Potency was “inactive”.

Question: Which Potency does the source give for `NC(=O)c1ccc(NC(=O)Cc2ccc(S(=O)(=O)N3CCCCC3)cc2)cc1` here?
Answer: Its Potency is inconclusive: 13 µM [activator, partial curve, poor fit].

Question: For `CN(C)c1ccc(C(=O)NNC(=O)C23CC4CC(CC(C4)C2)C3)cc1`, which Potency is on record?
Answer: The Potency was inconclusive: 18.3 µM [activator, partial curve].

Question: For `O=c1cc2c(=O)oc3cc(O)c(O)oc3c2c(O)c1O`, which Potency is on record?
Answer: The Potency was “inactive”.

Question: For `COc1ccc(-n2nc(C(=O)NCC(=O)NCC3COc4ccccc4O3)c3ccccc3c2=O)cc1OC` (stereo unspecified), which Potency is on record?
Answer: The Potency was active: 9.2 µM.

Question: With `COc1ccccc1NS(=O)(=O)c1ccc(Cl)c(NC(=O)C(C)N2C(=O)c3ccccc3C2=O)c1` (stereo unspecified) as the molecule, how does the Potency read?
Answer: Its Potency is “inactive”.

Question: Which Potency does the source give for `CCCCC(C(=O)NC(C)(C)C)N(Cc1ccco1)C(=O)c1snc(C(N)=O)c1N` (stereo unspecified) here?
Answer: The Potency was inconclusive: 23.1 µM [inhibitor, partial curve].

Question: With `O=C(CSc1nc2ccccc2o1)Nc1nccs1` as the molecule, how does the Potency read?
Answer: The Potency was inconclusive: 18.3 µM [activator, single point].

Question: With `CNc1c([N+](=O)[O-])cnn1-c1ccc(Cl)cc1Cl` as the molecule, how does the Potency read?
Answer: Its Potency is “inactive”.

Question: With `OC(CNCc1ccc(Cl)cc1)(c1ccccc1)c1ccc(F)cc1` (stereo unspecified) as the molecule, how does the Potency read?
Answer: The Potency was “inactive”.

Question: For `COc1ccccc1C(=O)NCCC(=O)NCCCSc1ccccc1`, which Potency is on record?
Answer: Its Potency is “inactive”.

Question: Which Potency does the source give for `Cc1c(Cl)c([N+](=O)[O-])nn1CCCC(=O)N(Cc1ccccc1)Cc1ccccc1` here?
Answer: The Potency was inconclusive: 16.4 µM [inhibitor, single point].

Question: For `CSCCC(NS(=O)(=O)c1ccccc1)C(=O)Nc1nccs1` (stereo unspecified), which Potency is on record?
Answer: Its Potency is inconclusive: 18.3 µM [activator, single point].

Question: Which Potency does the source give for `CN1C(=O)CSc2ccc(NC(=O)N3CCN(c4ccccc4)CC3)cc21` here?
Answer: Its Potency is inconclusive: 5.17 µM [activator, partial curve, poor fit].

Question: Which Potency does the source give for `COc1ccc(CC(=O)N2CCCc3ccccc32)cc1` here?
Answer: The Potency was inconclusive: 23.1 µM [activator, partial curve].

Question: Which Potency does the source give for `C=CCn1c(Cc2cccs2)nnc1SCC(=O)c1ccc2ccccc2c1` here?
Answer: The Potency was “inactive”.

Question: For `O=C(Nc1ccc2c(c1)OCO2)Nc1ccc(Cl)cc1Cl`, which Potency is on record?
Answer: Its Potency is inconclusive: 10.3 µM [activator, partial curve].

Question: Which Potency does the source give for `COc1cc2c(cc1OC)C(c1ccccc1)N(C(=O)CCl)CC2` (stereo unspecified) here?
Answer: Its Potency is inconclusive: 23.1 µM [inhibitor, single point].

Question: With `Cc1ccc(C#CC[N+]2(CC#Cc3ccc(C)cc3)CCCCC2)cc1` as the molecule, how does the Potency read?
Answer: Its Potency is active: 11.6 µM.

Question: With `O=C(O)c1ccc2[nH]c3c(c2c1)CSCC3` as the molecule, how does the Potency read?
Answer: Its Potency is “inactive”.

Question: Which Potency does the source give for `CCOC(=O)c1sc(=NC(=O)/C=C/c2cccs2)n(C)c1C` here?
Answer: Its Potency is inconclusive: 5.17 µM [activator, full curve].

Question: With `O=C(CSc1ccccc1)NCc1ccco1` as the molecule, how does the Potency read?
Answer: Its Potency is inconclusive: 16.4 µM [activator, single point].

Question: For `Cc1ccc(-n2ccc(=O)c(C(=O)Nc3ccc(S(=O)(=O)Nc4nccc(C)n4)cc3)n2)cc1`, which Potency is on record?
Answer: The Potency was “inactive”.

Question: With `Cc1ccccc1CN1CCN(C2CCC2)CC1CCO` (stereo unspecified) as the molecule, how does the Potency read?
Answer: The Potency was “inactive”.

Question: Which Potency does the source give for `COc1ccccc1NC(=O)N(Cc1ccco1)Cc1cc2c(C)ccc(C)c2[nH]c1=O` here?
Answer: The Potency was active: 5.17 µM.

Question: For `CCCc1cc(N2CCCC(C(=O)NCc3ccc4c(c3)OCO4)C2)n2ncnc2n1` (stereo unspecified), which Potency is on record?
Answer: Its Potency is inconclusive: 29.1 µM [inhibitor, partial curve, poor fit].

Question: With `CCOc1ccc(OCCOc2ncnc3ccccc23)cc1` as the molecule, how does the Potency read?
Answer: The Potency was inconclusive: 23.1 µM [activator, single point].

Question: For `COC(=O)c1sccc1NC(=O)Nc1ccc(OC)cc1`, which Potency is on record?
Answer: Its Potency is “inactive”.

Question: For `Cc1[nH]c2ccccc2c1N=Nc1cc(C(=O)O)cc(C(=O)O)c1`, which Potency is on record?
Answer: Its Potency is inconclusive: 23.1 µM [inhibitor, partial curve, poor fit].

Question: For `COc1ccc(CNCC(O)(c2ccccc2)c2ccc(Cl)cc2)cc1` (stereo unspecified), which Potency is on record?
Answer: The Potency was “inactive”.

Question: Which Potency does the source give for `CCOC(=O)C1=C(C)N(CCCC(=O)O)C(=O)NC1c1ccccc1OS(=O)(=O)c1ccc(C)cc1` (stereo unspecified) here?
Answer: Its Potency is “inactive”.

Question: Which Potency does the source give for `C=CCNC(=S)NNc1nc2c(c(=O)[nH]1)C1(CCCCC1)Cc1ccccc1-2` here?
Answer: Its Potency is “inactive”.

Question: For `CCN1C(=O)[C@H]2[C@@H](c3ccc(-c4ccc(OC)cc4)cc3)N3CCC[C@@]3(C(=O)OC)[C@H]2C1=O`, which Potency is on record?
Answer: Its Potency is inconclusive: 14.1 µM [inhibitor, single point].

Question: Which Potency does the source give for `COc1cccc(/C=C(/C(=O)OCC(=O)NCC2CCCO2)c2ccccc2)c1` (stereo unspecified) here?
Answer: The Potency was inconclusive: 29.1 µM [inhibitor, single point].

Question: Which Potency does the source give for `Cc1ccc(C(=O)NCC(c2ccco2)N2CCc3ccccc32)cc1C` (stereo unspecified) here?
Answer: The Potency was inconclusive: 18.3 µM [inhibitor, single point].

Question: With `CCN1C/C(=C/c2ccc(N3CCOCC3)cc2)C(=O)/C(=C/c2ccc(N3CCOCC3)cc2)C1` as the molecule, how does the Potency read?
Answer: Its Potency is inconclusive: 20.6 µM [inhibitor, single point].

Question: With `O=C(COC(=O)CCC(=O)c1ccc(F)cc1)NC1CCCCC1` as the molecule, how does the Potency read?
Answer: Its Potency is inconclusive: 0.231 µM [inhibitor, full curve, poor fit].

Question: With `CCN1C(=O)CSC1=NC12CC3CC(CC(C3)C1)C2` as the molecule, how does the Potency read?
Answer: The Potency was “inactive”.

Question: For `COC(=O)c1ccccc1NC(=O)c1ccc(-c2cccc(Cl)c2)o1`, which Potency is on record?
Answer: The Potency was inconclusive: 14.6 µM [activator, partial curve].

Question: With `O=C(CSc1nnc(NC(=O)c2c(F)cccc2F)s1)Nc1ccc(F)cc1` as the molecule, how does the Potency read?
Answer: The Potency was inconclusive: 6.51 µM [activator, full curve].

Question: For `COc1ccc(Cl)cc1NC(=O)COC(=O)c1ccc(C)o1`, which Potency is on record?
Answer: Its Potency is “inactive”.

Question: For `CN1CCN(c2ccc(NC(=O)c3ccccc3)cc2)CC1`, which Potency is on record?
Answer: Its Potency is inconclusive: 14.6 µM [activator, partial curve].

Question: For `CCOC(=O)c1sc(NC(=O)CSc2nc3c(c(=O)n2-c2ccccc2)SCC3)c(C(=O)OCC)c1C`, which Potency is on record?
Answer: Its Potency is “inactive”.

Question: Which Potency does the source give for `Cc1csc(=O)n1CC(=O)Nc1ccc(Cl)c(Cl)c1` here?
Answer: The Potency was inconclusive: 11.6 µM [activator, partial curve, poor fit].
